Our source for the binding values is patent US20260209323A1 (WHITEHEAD INSTITUTE FOR BIOMEDICAL RE SEARCH, published 2026).

To fix the notation:
T1: GSDMD-Renilla luciferase fusion (human) (UniProt P57764)
T1 sequence: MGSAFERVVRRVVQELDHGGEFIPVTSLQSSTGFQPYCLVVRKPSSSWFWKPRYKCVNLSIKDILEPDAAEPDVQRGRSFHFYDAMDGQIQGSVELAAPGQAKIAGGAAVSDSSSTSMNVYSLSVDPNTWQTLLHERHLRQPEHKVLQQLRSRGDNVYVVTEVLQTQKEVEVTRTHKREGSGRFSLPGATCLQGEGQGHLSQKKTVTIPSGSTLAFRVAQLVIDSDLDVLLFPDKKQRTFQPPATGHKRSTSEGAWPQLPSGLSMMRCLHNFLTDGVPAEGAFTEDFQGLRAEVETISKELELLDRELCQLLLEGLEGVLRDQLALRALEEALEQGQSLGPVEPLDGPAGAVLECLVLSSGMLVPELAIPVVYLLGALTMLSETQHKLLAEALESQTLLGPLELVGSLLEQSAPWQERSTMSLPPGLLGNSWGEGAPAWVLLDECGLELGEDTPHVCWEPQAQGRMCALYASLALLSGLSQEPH

B1: VHHGSDMD-3 (VHH)
VHH: QVQLVETGGGLVQPGGSLRLSCAASGFTLDIYNMGWFRQAPGKEREGVSCISSRYGTSTYYADSVKGRFTISRDNAKNTVYLQMNNLKPEDTAVYYCATVSWRFTTNQDVCLTPSVSGYWGQGTQVTVSS
notes: Alpaca single-domain antibody; One entry is used for all tag variants; also called VHH AK-H12; VHH-3; not shown: C-terminal tag that differs by assay: LPETG-His (recombinant protein: SPR, nanoDSF, liposome assay), HA-His6 (ELISA), HA
B2: VHHGSDMD-5 (VHH)
VHH: QVQLVETGGGLVQPGGSLRLSCAASGFVFSINPMNWYRQAPGKERELVAYISMRGSTTNYADSVKGRFIISRDNAKNTLYLQMNSLKPEDTAVYYCNAPSRSVWGQGTQVTVSS
notes: Alpaca single-domain antibody; also called VHH AK-G04; VHH-5; not shown: C-terminal HA-His tag (recombinant protein: SPR, nanoDSF, liposome assay, ELISA) or HA tag (LUMIER)
B3: VHHGSDMD-1 (VHH)
VHH: QVQLVESGGALVQPGGSLRLSCSASGFTFSKYLMSWYRQAPGKERELVATITTAGGNTNYADSVKGRFTISRDNAKNTVYLQMNSLKPEDTAVYYCKASGGTIRTVNETYWGQGTQVTVSS
notes: Alpaca single-domain antibody; One entry is used for all tag variants; also called VHH AK-A04; VHH-1; not shown: C-terminal tag that differs by assay: LPETG-His (recombinant protein: SPR, nanoDSF, liposome assay), HA-His6 (ELISA), HA

No constants are given. Whether binding was seen depends on the method and setting. In cells and extracts the contact can be indirect. Some binding calls cover weakened binding; strength is not graded here. Where a sequence is shown, tags or fusion partners need not be part of it.

The assay has as its target T1, GSDMD-Renilla luciferase fusion (human). The assay is described as follows: LUMIER, co-immunoprecipitation of GSDMD-Renilla with VHH-HA from HEK293T lysates.
Regarding B1, the binding result is recorded as “binds”. The value for B2 was “binds”; that for B3 was “binds”.
